Data source: PubChem BioAssay AID504793 (Drosophila RNAi Screening Center, 2011)
Assay: 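Genes required for cells to halt at G2/M after double-strand DNA breaks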 (primary screen). Cell system: Drosophila S2R+ cells. Reagents: long dsRNA against Drosophila genes, about 0.25 µg dsRNA per well. Duration: 4 days of dsRNA, then 4 hours of drug before read-out. Conditions: doxorubicin 0.5 µM for 4 hours to cause double-strand breaks, in cells also given a low, harmless dose of dsRNA against nbs to sensitise the assay. Read-out: 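Mitotic index as the number of phospho-histone H3-positive cells in each well following doxorubicin, given as raw counts without normalisation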. Reading the numbers: mitotic cells: higher = more cells in mitosis, weaker G2 arrest. Rule for the call: 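a call needs confirmation in secondary tests, with other dsRNAs and a check of mitotic timing without damage, not just a high primary count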. Calls: active = confirmed in follow-up tests; inactive = not confirmed.
The deposit covers about 23,000 reagents; this is an unselected part of those that have a named target and a result. In the full data, 62 (0.27%) were called active. 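Calls come from follow-up tests whose scores are not deposited, so confirmed genes may have low counts here; counts are not normalised per plate.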 The raw values are shown without normalisation. Reagent sequences are not shown.

gene knocked down	dsRNA	mitotic cells, replicate 1	mitotic cells, replicate 2	call
CG4424	DRSC15576	9		inactive
eIF5	DRSC20165	7		inactive
thoc6	DRSC10528	2		inactive
CG31221	DRSC14335	7		inactive
CG31221	DRSC16217	8		inactive
CG31221	DRSC23748	8		inactive
Rph	DRSC17790	20		inactive
Rph	DRSC23887	1		inactive
ttk	DRSC14078	5		inactive
ttk	DRSC17091	33		inactive
ttk	DRSC27078	14		inactive
PolD3	DRSC01961	2		inactive
PolD3	DRSC28401	6		inactive
CG5327	DRSC06930	5		inactive
CG12035	DRSC08238	2		inactive
CG32813	DRSC17948	7		inactive
CG32813	DRSC24734	6		inactive
CG10428	DRSC02054	3		inactive
brk	DRSC23036	11		inactive
brk	DRSC27320	4		inactive
Neu2	DRSC11819	7		inactive
Neu2	DRSC26795	5		inactive
CBP	DRSC17746	9		inactive
rdhB	DRSC16190	6		inactive
TpnC41C	DRSC04916	4		inactive
Kyat	DRSC16147	5		inactive
CG18682 (retired record)	DRSC15373	8		inactive
CG18682 (retired record)	DRSC15374	9	13	inactive
CG7691	DRSC16287	6		inactive
CG31639	DRSC00910	9		inactive
CG31639	DRSC28271	3		inactive
CG5001	DRSC00673	3		inactive
CG5001	DRSC26191	5		inactive
ihog	DRSC03157	4		inactive
ihog	DRSC29581	15		inactive
CG8620	DRSC11020	2		inactive
CG8620	DRSC25632	9		inactive
CG31805	DRSC01563	8		inactive
myd	DRSC15512	14		inactive
CG11164	DRSC19392	15		inactive
CG8818	DRSC07275	8		inactive
CG8818	DRSC28138	4		inactive
CG7737	DRSC07033	1		inactive
CG14673 (retired record)	DRSC12259	2		inactive
insb	DRSC06995	5		inactive
insb	DRSC24404	7		inactive
CHKov1	DRSC01566	4		inactive
CHKov1	DRSC01696	3		inactive
CHKov1	DRSC14258	7		inactive
CHKov1	DRSC20937	8		inactive
CHKov1	DRSC30063	6		inactive
CG18641	DRSC00527	11		inactive
CG13068	DRSC09951	8		inactive
CG13068	DRSC27150	10		inactive
CG32391	DRSC08865	3		inactive
wapl	DRSC18851	10		inactive
wapl	DRSC27941	5		inactive
Cul5	DRSC14723	17		inactive
Ace	DRSC14100	5		inactive
Ace	DRSC25364	4		inactive
Cda9	DRSC06593	10		inactive
stet	DRSC08246	9		inactive
stet	DRSC08283	5		inactive
CG10321	DRSC04061	6		inactive
CG10321	DRSC28284	4		inactive
TwdlK	DRSC24969	1		inactive
CG8870	DRSC16452	7		inactive
Mrtf	DRSC08410	4		inactive
Mrtf	DRSC23194	21		inactive
Mrtf	DRSC30105	10		inactive
CR30374	DRSC05080	8		inactive
Vps29	DRSC00666	4		inactive
Ttc26	DRSC15591	7		inactive
Ttc26	DRSC27237	5		inactive
CG42699	DRSC18076	9		inactive
CG42699	DRSC18341	19		inactive
CG42699	DRSC25221	12		inactive

9 consecutive entries from above:
gene knocked down	dsRNA	mitotic cells, replicate 1	mitotic cells, replicate 2	call
CG31221	DRSC23748	8		inactive
Rph	DRSC17790	20		inactive
Rph	DRSC23887	1		inactive
ttk	DRSC14078	5		inactive
ttk	DRSC17091	33		inactive
ttk	DRSC27078	14		inactive
PolD3	DRSC01961	2		inactive
PolD3	DRSC28401	6		inactive
CG5327	DRSC06930	5		inactive
